Patent US20040087774A1
These are yes or no findings as the source states them, for the method shown. Some entries that bind do so weakly or less than the wild type. For some of these results: Sequences can lack the tags named with a protein. Values belong to the binder of their own block, whether it stands above or below them.

By UniProt entry, the sequences of proteins in these tests, tags left out. Where a name states a change or a piece, a line headed by the entry shows the natural chain unless it says otherwise.
UniProt P04386: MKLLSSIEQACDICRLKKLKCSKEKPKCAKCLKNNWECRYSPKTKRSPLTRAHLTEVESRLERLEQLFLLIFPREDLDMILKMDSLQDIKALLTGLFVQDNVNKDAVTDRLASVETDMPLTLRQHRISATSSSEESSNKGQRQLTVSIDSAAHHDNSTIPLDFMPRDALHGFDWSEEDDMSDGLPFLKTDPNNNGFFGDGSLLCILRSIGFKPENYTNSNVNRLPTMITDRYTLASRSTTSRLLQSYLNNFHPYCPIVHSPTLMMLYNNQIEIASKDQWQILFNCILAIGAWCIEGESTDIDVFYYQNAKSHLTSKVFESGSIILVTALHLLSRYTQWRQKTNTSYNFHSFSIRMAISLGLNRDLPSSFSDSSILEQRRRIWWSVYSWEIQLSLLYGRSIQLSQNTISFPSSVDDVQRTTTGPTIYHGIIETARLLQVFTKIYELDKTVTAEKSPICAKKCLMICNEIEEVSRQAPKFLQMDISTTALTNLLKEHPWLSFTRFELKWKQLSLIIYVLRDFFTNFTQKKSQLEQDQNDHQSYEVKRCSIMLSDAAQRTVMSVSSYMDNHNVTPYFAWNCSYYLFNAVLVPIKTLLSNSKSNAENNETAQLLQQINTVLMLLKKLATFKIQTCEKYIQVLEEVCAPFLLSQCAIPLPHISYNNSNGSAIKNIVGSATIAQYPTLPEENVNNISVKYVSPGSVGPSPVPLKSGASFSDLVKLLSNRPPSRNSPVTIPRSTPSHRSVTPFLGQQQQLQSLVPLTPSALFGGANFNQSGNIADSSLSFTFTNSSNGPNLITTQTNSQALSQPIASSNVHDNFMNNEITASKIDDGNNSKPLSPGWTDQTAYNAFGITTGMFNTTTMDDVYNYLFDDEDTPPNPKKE

Columns and labels:
[1] = biological target: full length TRAF2 in the GAL4 DNA-binding domain vector pPC97 (yeast; murine) (UniProt P04386+P39429); assay: yeast two-hybrid screening, TRAF2 as bait
[2] = biological target: T1, 35S-labeled TRAF1 (murine) (UniProt P39428); assay: in vitro binding assay (FIG. 2)
T1 sequence (35S-labeled (in vitro translated, TNT coupled reticulocyte lysate), looked up): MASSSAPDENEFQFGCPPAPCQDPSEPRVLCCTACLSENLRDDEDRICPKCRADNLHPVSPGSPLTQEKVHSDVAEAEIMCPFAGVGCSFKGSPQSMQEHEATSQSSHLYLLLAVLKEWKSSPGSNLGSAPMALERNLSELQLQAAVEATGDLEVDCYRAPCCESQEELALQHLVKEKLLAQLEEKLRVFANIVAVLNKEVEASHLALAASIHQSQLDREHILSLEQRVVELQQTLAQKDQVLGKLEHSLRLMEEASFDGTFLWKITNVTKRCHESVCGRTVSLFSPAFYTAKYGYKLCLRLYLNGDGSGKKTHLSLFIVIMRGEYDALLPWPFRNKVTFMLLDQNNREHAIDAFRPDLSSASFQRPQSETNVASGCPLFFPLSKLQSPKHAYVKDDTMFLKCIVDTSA

[3] = biological target: T2, 35S-labeled TRAF2 (murine) (UniProt P39429); assay: in vitro binding assay (FIG. 2)
T2 sequence (35S-labeled (in vitro translated, TNT coupled reticulocyte lysate), looked up): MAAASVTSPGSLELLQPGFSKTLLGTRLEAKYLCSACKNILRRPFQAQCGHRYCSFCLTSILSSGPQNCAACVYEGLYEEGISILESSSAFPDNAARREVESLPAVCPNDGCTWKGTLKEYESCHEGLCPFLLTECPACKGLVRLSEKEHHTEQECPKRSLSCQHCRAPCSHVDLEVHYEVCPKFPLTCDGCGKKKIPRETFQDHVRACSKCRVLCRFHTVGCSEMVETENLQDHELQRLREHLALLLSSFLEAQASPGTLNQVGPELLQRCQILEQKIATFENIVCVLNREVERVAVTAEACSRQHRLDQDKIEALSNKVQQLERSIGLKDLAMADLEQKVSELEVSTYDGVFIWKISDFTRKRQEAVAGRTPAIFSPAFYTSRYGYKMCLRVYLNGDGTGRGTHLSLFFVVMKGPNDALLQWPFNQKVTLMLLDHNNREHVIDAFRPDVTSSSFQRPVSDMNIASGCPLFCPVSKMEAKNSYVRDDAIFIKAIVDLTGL

[4] = biological target: T1, 35S-labeled TRAF1 (murine); assay: in vitro binding (GST pull-down of 35S-labeled protein)
[5] = biological target: T2, 35S-labeled TRAF2 (murine); assay: as above
[6] = biological target: T1, 35S-labeled TRAF1 (murine); assay: in vitro binding: GST-I-TRAF on glutathione Sepharose beads, 35S-labeled protein, SDS-PAGE and autoradiography
[7] = biological target: T2, 35S-labeled TRAF2 (murine); assay: as above

- binding [1]: binds
B1: N-terminal portion of murine I-TRAF (amino acids 35-236), as GAL4 activation domain library clone (protein, not shown: large carriers)
chain: ENYEQRIREQQEQLSFQQNLIDRLKSQLLLVDSSRDNSYGYVPLLEDSDRRKNNLTLDEPHDKVKLGTLRDKQSKVRRQEVSSGKESAKGLNIPLHHERDNIEKTFWDLKEEFHRICLLAKAQKDHLSKLNIPDIATDTQCSVPIQCTDKTEKQEALFKPQAKDDINRGMSCVTAVTPRGLGRDEEDTSFESLSKFNVKFPP

- binding [2]: binds
- binding [3]: binds
- binding [4]: binds
- binding [5]: binds
- binding [6]: binds
- binding [7]: binds
B2: I-TRAFα expressed as a glutathione-S-transferase (GST) fusion protein (protein, not shown: a dimerising Fc or GST)
chain: MDKNIGEQLNRAYEAFRQACMDRDSAVRELQQKTENYEQRIREQQEQLSFQQNLIDRLKSQLLLVDSSRDNSYGYVPLLEDSDRRKNNLTLDEPHDKVKLGTLRDKQSKVRRQEVSSGKESAKGLNIPLHHERDNIEKTFWDLKEEFHRICLLAKAQKDHLSKLNIPDIATDTQCSVPIQCTDKTEKQEALFKPQAKDDINRGMSCVTAVTPRGLGRDEEDTSFESLSKFNVKFPPMDNDSIFLHSTPEAPSILAPATPETVCQDRFNMEVRDNPGNFVKTEETLFEIQGIDPITSAIQNLKTTDKTNPSNLRATCLPAGDHNVFYVNTFPLQDPPDAPFPSLDSPGKAVRGPQQPFWKPFLNQDTDLVVPSDSDSELLKPLVCEFCQELFPPSITSRGDFLRHLNTHFNGET
